# Experimental data from PubChem BioAssay AID2685 (National Center for Advancing Translational Sciences (NCATS), 2010).
# Some of the results follow. Shown are side measurements of this screen, not its main read-out; they come without a call. Most of these compounds were active or inconclusive in the main read-out, so they are no random draw. The note in brackets gives the kind of curve behind each potency; many fits are weak.
# Assay: qHTS Assay for Lipid Storage Modulators in Drosophila S3 Cells;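 as to cell number change: cells counted by Cell Tracker Red CMTPX staining in the red channel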
# Settings: BODIPY lipid droplet fluorescence, 18-24 h; for cell number change: measured here: cell count max response, cells fed with added oleic acid
# Method in brief: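 Drosophila S3 cells loaded with oleic acid (400 uM, as added) and compounds at several concentrations; lipid droplets imaged by 488-nm laser-scanning cytometry, 500–530 nm intensity and object ratio to cell channel. Percent activity normalized to 20 uM Triacsin C.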
# [1] = measured here: cell number channel AC50, cells fed with added oleic acid
# [2] = measured here: lipid fluorescence (Fed channel) AC50, cells fed with added oleic acid
smiles,measurement,setting,value
COc1ccc(OC)c(C2NC(=O)NC(C)=C2C(=O)OC2CCCCC2)c1 (stereo unspecified),cell number change,,-6.93%
same,AC50,[1],"0.326 µM [rising, full curve, poor fit]"
same,AC50,[2],"1.3 µM [rising, full curve]"
COc1cccc(C(=O)OC2CCCN(C)C2)c1 (stereo unspecified),AC50,[2],"25.9 µM [falling, partial curve]"
CCCn1ncc2c(Nc3ccc(C)c(C)c3)ncnc21,cell number change,,7.66%
same,AC50,[2],"3.26 µM [falling, partial curve]"
CCn1c(C(C)NC(=O)Cc2ccccc2)nc2ccccc21 (stereo unspecified),cell number change,,0.123%
same,AC50,[2],"29.1 µM [falling, single point]"
Cc1ccc(NC(=O)CCC(=O)c2cccs2)c(O)c1,cell number change,,-3.7%
same,AC50,[2],"0.326 µM [falling, partial curve, poor fit]"
C=CCn1cc(C(C)=O)c(=O)[nH]c1=O,cell number change,,3.13%
same,AC50,[1],"5.17 µM [falling, partial curve, poor fit]"
O=C(Cc1ccc(Cl)c(Cl)c1)Nc1cccnc1,cell number change,,15.5%
CC(NC(=O)c1cccc(S(=O)(=O)N2CCCCCC2)c1)c1ccccc1 (stereo unspecified),cell number change,,-40.5%
same,AC50,[1],"18.4 µM [falling, single point]"
same,AC50,[2],"0.82 µM [falling, full curve]"
COC(=O)c1ccc2[nH]c([C@H](C)O)c([C@H](C)O)c2c1,cell number change,,18.6%
CSc1ccc(CCNC(=O)CCc2nnc3ccc(N4CCC5(CC4)OCCO5)nn23)cc1,cell number change,,-14.1%
COc1ccc(C(=O)NC(=S)Nc2ccc(N3CCOCC3)c(Cl)c2)cc1[N+](=O)[O-],cell number change,,-24.6%
same,AC50,[2],"0.651 µM [falling, single point]"
Cc1ccccc1C(=O)Nc1cccc(-c2cn3ccccc3n2)c1,cell number change,,-3.68%
same,AC50,[2],"0.0058 µM [falling, full curve, poor fit]"
CCOc1cccc(CN2CCCC(C(=O)Nc3ccc(-c4ccn[nH]4)cc3)C2)c1O (stereo unspecified),cell number change,,-5.42%
c1cncc(-c2nc(N3CCCCCC3)c3ccccc3n2)c1,cell number change,,-20.5%
same,AC50,[2],"7.31 µM [rising, partial curve]"
Nc1n[nH]c2ccccc12,cell number change,,-4.77%
same,AC50,[2],"1.84 µM [falling, partial curve]"
O=C(NNC(=O)C1CCN(Cc2ccc(Cl)c(Cl)c2)CC1)c1cccs1,cell number change,,-5.33%
same,AC50,[1],"0.00411 µM [falling, full curve, poor fit]"
CC(C)(C)OC(=O)N1Cc2cc3ccccc3nc2C1CO (stereo unspecified),cell number change,,-14.3%
O=C(C[n+]1cccc(CNC(=O)c2ccc(OC(F)F)cc2)c1)Nc1cccc(C(F)(F)F)c1,cell number change,,25.2%
same,AC50,[1],"7.31 µM [rising, partial curve, poor fit]"
CCc1ccc(NC(=O)N(CCOC)C2CCN(C(C)=O)CC2)cc1,cell number change,,28.2%
same,AC50,[2],"4.11 µM [falling, partial curve]"
COC(=O)c1scc(C#N)c1N/N=C(\C#N)S(=O)(=O)c1ccc(Cl)cc1,cell number change,,-15.6%
COc1cccc(C(=O)N(Cc2ccccc2)Cc2cc3cc4c(cc3[nH]c2=O)OCCO4)c1,cell number change,,5.83%
same,AC50,[2],"29.1 µM [falling, single point]"
COc1cccc(N2CCN(S(=O)(=O)c3ccc4c(c3)N(C(C)=O)CCO4)CC2)c1,cell number change,,-47.7%
same,AC50,[1],"14.6 µM [falling, single point]"
same,AC50,[2],"23.1 µM [falling, single point]"
Cc1ccc2c(c1)/C(=C/c1ccccc1)C(=O)N2,cell number change,,-33.8%
same,AC50,[1],"29.1 µM [falling, single point]"
same,AC50,[2],"23.1 µM [falling, single point]"
O=C(CCc1c[nH]c2ccccc12)NCCc1ccccc1,cell number change,,-11.4%
same,AC50,[2],"2.31 µM [rising, partial curve]"
CCSc1nnc(NC(=O)c2cccnc2)s1,cell number change,,-7.03%
same,AC50,[2],"29.1 µM [falling, single point]"
O=C(NCCCN1CCOCC1)c1cc(-c2ccc(F)cc2)on1,cell number change,,-7.87%
same,AC50,[1],"3.66 µM [falling, partial curve]"
O=C(Nc1ccc2oc(-c3cccnc3)nc2c1)c1cc2ccccc2o1,cell number change,,-20%
same,AC50,[2],"0.103 µM [rising, full curve, poor fit]"
CC(C)C(NC(=O)c1c(F)cccc1F)C(=O)NCc1ccc(S(=O)(=O)N2CCOCC2)cc1 (stereo unspecified),cell number change,,-3.37%
COc1cccc(OC)c1OCCN1CCN(C(=O)c2ccco2)CC1,cell number change,,-0.75%
same,AC50,[2],"6.51 µM [rising, single point]"
O=C(Nc1ccc(S(=O)(=O)NCc2ccccc2)cc1)C1CCCCC1,cell number change,,7.67%
same,AC50,[2],"29.1 µM [falling, single point]"
NC(=O)c1ccsc1NC(=O)COC(=O)CNC(=O)c1cccc([N+](=O)[O-])c1,cell number change,,-6.33%
same,AC50,[2],"10.3 µM [falling, partial curve, poor fit]"
O=C1C2CC=C(Cl)CC2C(=O)N1CCN1CCOCC1 (stereo unspecified),cell number change,,-4.23%
same,AC50,[1],"0.0291 µM [falling, full curve, poor fit]"
same,AC50,[2],"0.651 µM [falling, full curve]"
COc1ccc(NC(C)=O)cc1S(=O)(=O)N(C)Cc1c(C)nn(-c2ccccc2)c1C,cell number change,,18.9%
same,AC50,[2],"14.6 µM [rising, partial curve, poor fit]"
C=C(C)COc1ccc2oc(C)c(C(=O)OCCOC)c2c1,cell number change,,4.69%
COc1ccc(C)cc1NC(=O)c1nnn(CCc2ccccc2)c1N,cell number change,,-9.67%
same,AC50,[2],"0.58 µM [falling, single point]"
Cc1ccc(C)c(NC(=O)CCc2ccc(C)o2)c1,cell number change,,6.3%
COc1ccc(OC)c(NC(=O)CC2SC(=Nc3ccccc3)N(CCc3ccccn3)C2=O)c1 (stereo unspecified),cell number change,,-14.8%
same,AC50,[1],"6.51 µM [falling, single point]"
same,AC50,[2],"2.59 µM [rising, partial curve]"
CC(=O)c1cccc(NC(=S)NCCc2ccc(Cl)cc2)c1,cell number change,,29.9%
CCC(NC(=O)OCc1ccccc1)C(=O)Oc1ccc2ccc(=O)oc2c1 (stereo unspecified),cell number change,,11.7%
COc1ccc(CN2CC(=O)N3[C@H]4c5ccc(OC)cc5OC[C@@H]4[C@H](c4ccccc4)[C@]3(C)C2=O)cc1,cell number change,,6.33%
same,AC50,[2],"0.13 µM [falling, partial curve, poor fit]"
Cc1ccc(NC(=O)c2sc(N)nc2-c2ccc([N+](=O)[O-])cc2)cc1C,cell number change,,-26.6%
same,AC50,[2],"29.1 µM [falling, single point]"
Cc1ccc(-c2c(C#N)c(N)nc3c2CCCCCC3)o1,cell number change,,24%
same,AC50,[1],"0.411 µM [rising, partial curve, poor fit]"
CC(=O)NC(Cc1ccccc1C)C(=O)NC1CCN(C(=O)NCc2ccccc2)CC1 (stereo unspecified),cell number change,,13.3%
Cc1c(Br)c([N+](=O)[O-])nn1CC(=O)NC1CCCCCC1,cell number change,,-19%
same,AC50,[2],"18.4 µM [falling, single point]"
CCN(C(=O)c1ccco1)c1nnc(-c2ccc(OC)cc2)s1,cell number change,,-30%
same,AC50,[1],"6.51 µM [falling, partial curve]"
C/C(=N\N=C1\NC(=O)CC(C(=O)O)S1)c1ccc(F)cc1 (stereo unspecified),cell number change,,-41.2%
same,AC50,[1],"16.4 µM [falling, single point]"
same,AC50,[2],"0.184 µM [falling, full curve, poor fit]"
C=CCn1c(SCC(=O)Nc2ccccc2)nc2scc(-c3cccs3)c2c1=O,AC50,[2],"0.146 µM [rising, full curve, poor fit]"
CCCCCCC(=O)N(O)C1CC(=O)N(c2ccc(C)cc2)C1=O (stereo unspecified),cell number change,,-31.4%
same,AC50,[1],"29.1 µM [falling, single point]"
same,AC50,[2],"20.6 µM [falling, partial curve]"
COCCCNC(=S)N1CCN(S(=O)(=O)c2ccc(OC)cc2)CC1,cell number change,,-0.516%
COC(=O)CCN1CCC(C(N)=O)CC1,AC50,[2],"0.146 µM [falling, full curve, poor fit]"
CCc1ccc(C=NC23CN4CN(CN(C4)C2)C3)s1,cell number change,,-141%
same,AC50,[1],"25.9 µM [falling, partial curve]"
same,AC50,[2],"29.1 µM [falling, partial curve]"
CC1CCN(S(=O)(=O)c2ccc(NC(=O)CSc3ncccc3C(=O)O)cc2)CC1,cell number change,,-16.6%
same,AC50,[2],"3.66 µM [falling, full curve, poor fit]"
Cc1nnc(SCC(=O)Nc2ccc3c(c2)COC3=O)n1-c1ccccc1,cell number change,,4.09%
same,AC50,[2],"18.4 µM [falling, single point]"
Cc1cccc(NC(=O)CSc2nc3nc(C)cc(C)n3n2)c1,AC50,[1],"0.206 µM [falling, full curve, poor fit]"
same,AC50,[2],"6.51 µM [falling, single point]"
CC(OC(=O)CCN=C1NS(=O)(=O)c2ccccc21)C(=O)Nc1ccc(N(C)C)cc1 (stereo unspecified),cell number change,,-13.1%
same,AC50,[2],"0.82 µM [rising, single point]"
O=C(O)CCC(=O)NCc1c(Cl)cccc1Sc1ccc(Cl)cc1,cell number change,,-38.7%
same,AC50,[1],"6.51 µM [falling, full curve, poor fit]"
same,AC50,[2],"5.17 µM [falling, full curve]"
Cc1ccc(C)c2[nH]c(=O)c(CN(CCN3CCCC3)C(=O)Nc3cccc(Cl)c3)cc12,AC50,[2],"1.46 µM [rising, partial curve]"
COc1ccc(S(=O)(=O)N2CCC(C(=O)NCCc3ccc4c(c3)OCO4)CC2)cc1,cell number change,,11.4%
same,AC50,[2],"0.164 µM [rising, full curve]"
Cc1nn(CC(O)c2ccccc2)c(C)c1Br (stereo unspecified),cell number change,,-71%
same,AC50,[1],"5.8 µM [falling, partial curve]"
same,AC50,[2],"6.51 µM [falling, single point]"
Cc1cc(C(=O)CCl)c(C)n1CCc1ccccc1,cell number change,,-12.6%
COC(=O)c1cccc(OC(N)=O)c1,cell number change,,-0.489%
same,AC50,[2],"4.11 µM [rising, full curve]"
Cc1ccc2c(c1)c(C)c(C)n2CC(O)Cn1nnc2ccccc21 (stereo unspecified),cell number change,,-3.14%

# Reformatted: results already given
smiles	measurement	setting	value
O=C(NCCCN1CCOCC1)c1cc(-c2ccc(F)cc2)on1	AC50	[1]	3.66 µM [falling, partial curve]
O=C(Nc1ccc2oc(-c3cccnc3)nc2c1)c1cc2ccccc2o1	cell number change		-20%

# Another view of some results above:
smiles | measurement | setting | value
COCCCNC(=S)N1CCN(S(=O)(=O)c2ccc(OC)cc2)CC1 | cell number change |  | -0.516%
COC(=O)CCN1CCC(C(N)=O)CC1 | AC50 | [2] | 0.146 µM [falling, full curve, poor fit]
CCc1ccc(C=NC23CN4CN(CN(C4)C2)C3)s1 | cell number change |  | -141%
same | AC50 | [1] | 25.9 µM [falling, partial curve]
same | AC50 | [2] | 29.1 µM [falling, partial curve]
CC1CCN(S(=O)(=O)c2ccc(NC(=O)CSc3ncccc3C(=O)O)cc2)CC1 | cell number change |  | -16.6%
